Laboratory results reported in article PMC7948076.
These are yes or no findings as the source states them, for the method shown. In cells and extracts the contact can be indirect. Some entries that bind do so weakly or less than the wild type.

Amino acid sequences for entries named in this document (tags omitted).
UniProt Q9Z1E3: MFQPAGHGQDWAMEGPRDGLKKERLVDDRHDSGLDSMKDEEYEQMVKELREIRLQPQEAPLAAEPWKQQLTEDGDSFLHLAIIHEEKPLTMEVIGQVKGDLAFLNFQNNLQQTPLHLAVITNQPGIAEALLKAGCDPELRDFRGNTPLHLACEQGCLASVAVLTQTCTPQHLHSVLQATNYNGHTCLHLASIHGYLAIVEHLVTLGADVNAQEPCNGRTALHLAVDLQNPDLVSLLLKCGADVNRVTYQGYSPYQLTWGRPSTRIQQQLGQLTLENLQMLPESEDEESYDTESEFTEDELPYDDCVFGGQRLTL
UniProt Q04207: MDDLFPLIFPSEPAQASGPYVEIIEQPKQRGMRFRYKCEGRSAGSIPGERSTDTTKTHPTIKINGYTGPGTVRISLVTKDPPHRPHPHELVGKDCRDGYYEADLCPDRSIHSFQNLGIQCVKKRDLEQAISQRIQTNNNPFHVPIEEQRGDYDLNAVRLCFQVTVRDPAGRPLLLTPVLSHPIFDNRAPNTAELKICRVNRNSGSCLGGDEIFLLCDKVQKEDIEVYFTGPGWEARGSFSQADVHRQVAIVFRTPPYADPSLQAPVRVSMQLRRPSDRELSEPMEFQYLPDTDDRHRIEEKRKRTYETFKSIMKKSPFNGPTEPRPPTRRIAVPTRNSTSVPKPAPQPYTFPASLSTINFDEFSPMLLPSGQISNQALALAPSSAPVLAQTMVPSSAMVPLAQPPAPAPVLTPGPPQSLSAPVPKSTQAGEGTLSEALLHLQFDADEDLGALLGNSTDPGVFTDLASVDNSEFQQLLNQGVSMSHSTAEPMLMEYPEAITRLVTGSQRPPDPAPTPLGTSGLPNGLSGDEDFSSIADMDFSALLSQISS
UniProt Q6NZM9: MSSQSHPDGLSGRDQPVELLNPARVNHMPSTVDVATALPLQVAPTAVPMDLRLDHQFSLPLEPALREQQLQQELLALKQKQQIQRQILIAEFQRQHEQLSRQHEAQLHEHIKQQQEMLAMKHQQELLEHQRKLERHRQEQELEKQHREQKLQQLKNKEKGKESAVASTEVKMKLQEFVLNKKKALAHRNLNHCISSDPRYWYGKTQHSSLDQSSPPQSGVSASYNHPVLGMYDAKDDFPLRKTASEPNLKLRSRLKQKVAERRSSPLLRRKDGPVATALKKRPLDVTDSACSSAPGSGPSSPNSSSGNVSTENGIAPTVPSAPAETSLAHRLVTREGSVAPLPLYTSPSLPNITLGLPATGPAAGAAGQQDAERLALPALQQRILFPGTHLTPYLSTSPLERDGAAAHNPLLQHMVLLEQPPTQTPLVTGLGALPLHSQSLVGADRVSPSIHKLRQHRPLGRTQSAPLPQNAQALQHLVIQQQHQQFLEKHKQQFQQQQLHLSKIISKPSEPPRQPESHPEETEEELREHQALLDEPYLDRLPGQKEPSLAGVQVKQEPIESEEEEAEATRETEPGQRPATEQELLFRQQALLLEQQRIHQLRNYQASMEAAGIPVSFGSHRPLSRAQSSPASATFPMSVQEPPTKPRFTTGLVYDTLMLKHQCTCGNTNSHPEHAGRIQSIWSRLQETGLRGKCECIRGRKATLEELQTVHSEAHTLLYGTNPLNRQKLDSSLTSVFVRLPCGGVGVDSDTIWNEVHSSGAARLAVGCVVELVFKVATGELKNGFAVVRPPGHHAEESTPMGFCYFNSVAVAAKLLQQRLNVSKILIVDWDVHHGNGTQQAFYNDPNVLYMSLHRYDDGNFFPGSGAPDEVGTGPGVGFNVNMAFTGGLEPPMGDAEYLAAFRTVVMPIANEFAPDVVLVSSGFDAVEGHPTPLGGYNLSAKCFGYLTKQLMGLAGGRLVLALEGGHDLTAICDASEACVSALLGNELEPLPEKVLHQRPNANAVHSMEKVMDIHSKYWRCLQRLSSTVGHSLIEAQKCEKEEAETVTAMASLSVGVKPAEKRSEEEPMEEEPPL

Legend:
Test in all cases: co-IP; endogenous proteins; BMDCs untreated or treated with LPS (100 ng/ml), HEK293T cells treated with TNFα (20 ng/ml) for the indicated times; lysis in 50 mM Tris pH 7.5, 1 mM EGTA, 1 mM EDTA, 1% Triton X-100, 150 mM NaCl; Protein G-agarose and antibodies 4 h at 4°C
[1] = target: IκBα, endogenous in mouse BMDCs (mouse (endogenous in BMDCs)) (UniProt Q9Z1E3)
[2] = target: p65 (RelA), endogenous in mouse BMDCs (mouse (endogenous in BMDCs)) (UniProt Q04207)
[3] = target: T1, IKKβ, endogenous in mouse BMDCs (mouse (endogenous in BMDCs)) (UniProt O88351)
T1 sequence: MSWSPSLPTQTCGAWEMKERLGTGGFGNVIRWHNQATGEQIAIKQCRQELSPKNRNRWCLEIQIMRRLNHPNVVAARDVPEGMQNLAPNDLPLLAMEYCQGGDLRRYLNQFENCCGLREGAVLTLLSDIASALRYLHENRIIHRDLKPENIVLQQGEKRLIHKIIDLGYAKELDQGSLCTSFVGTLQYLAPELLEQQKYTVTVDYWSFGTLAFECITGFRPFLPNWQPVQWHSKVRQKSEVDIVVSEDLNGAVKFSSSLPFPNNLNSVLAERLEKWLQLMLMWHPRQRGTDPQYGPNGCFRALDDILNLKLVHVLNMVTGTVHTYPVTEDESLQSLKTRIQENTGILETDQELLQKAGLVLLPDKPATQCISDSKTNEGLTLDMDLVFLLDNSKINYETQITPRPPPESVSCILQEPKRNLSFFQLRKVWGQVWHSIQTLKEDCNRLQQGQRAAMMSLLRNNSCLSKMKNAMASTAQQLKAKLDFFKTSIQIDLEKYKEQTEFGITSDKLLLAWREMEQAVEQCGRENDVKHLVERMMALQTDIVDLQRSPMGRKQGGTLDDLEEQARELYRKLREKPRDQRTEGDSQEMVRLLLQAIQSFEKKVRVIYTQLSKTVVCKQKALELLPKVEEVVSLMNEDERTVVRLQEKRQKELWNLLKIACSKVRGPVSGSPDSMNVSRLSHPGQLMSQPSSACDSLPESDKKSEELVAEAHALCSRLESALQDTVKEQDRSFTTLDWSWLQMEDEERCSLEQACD

Substance | binding [1] | binding [2] | binding [3]
histone deacetylase 4 (HDAC4), endogenous in mouse BMDCs (from UniProt Q6NZM9 1-1076) | binds | binds | binds
p65 (RelA), endogenous in mouse BMDCs (from UniProt Q04207 1-549) | binds |  | 
